Experimental data as given in PMC5057128.
These are yes or no findings as the source states them, for the method shown. Binding seen in cells or lysates may run through a third protein. Some results given as binding are weak or reduced against the parent protein; the word gives no strength. One block for each molecule: values may come before it.

Amino acid sequences for entries named in this document (tags omitted).
UniProt P11440: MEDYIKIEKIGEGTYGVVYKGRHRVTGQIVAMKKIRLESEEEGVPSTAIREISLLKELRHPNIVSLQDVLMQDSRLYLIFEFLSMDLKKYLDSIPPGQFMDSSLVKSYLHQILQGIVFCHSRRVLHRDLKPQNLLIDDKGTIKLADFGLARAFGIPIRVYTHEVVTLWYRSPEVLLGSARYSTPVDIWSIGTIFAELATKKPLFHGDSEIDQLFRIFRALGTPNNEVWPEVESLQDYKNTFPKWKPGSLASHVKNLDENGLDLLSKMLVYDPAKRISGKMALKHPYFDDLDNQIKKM

How the values were obtained:
[1] = molecular target: T1, dynamin 2 (mouse (endogenous in testis)) (UniProt P39054); test: proximity ligation; Duolink in situ PLA on fixed isolated mouse germ cells (SPG, PS, RS, elongating spermatids); signal means <40 nm
T1 sequence: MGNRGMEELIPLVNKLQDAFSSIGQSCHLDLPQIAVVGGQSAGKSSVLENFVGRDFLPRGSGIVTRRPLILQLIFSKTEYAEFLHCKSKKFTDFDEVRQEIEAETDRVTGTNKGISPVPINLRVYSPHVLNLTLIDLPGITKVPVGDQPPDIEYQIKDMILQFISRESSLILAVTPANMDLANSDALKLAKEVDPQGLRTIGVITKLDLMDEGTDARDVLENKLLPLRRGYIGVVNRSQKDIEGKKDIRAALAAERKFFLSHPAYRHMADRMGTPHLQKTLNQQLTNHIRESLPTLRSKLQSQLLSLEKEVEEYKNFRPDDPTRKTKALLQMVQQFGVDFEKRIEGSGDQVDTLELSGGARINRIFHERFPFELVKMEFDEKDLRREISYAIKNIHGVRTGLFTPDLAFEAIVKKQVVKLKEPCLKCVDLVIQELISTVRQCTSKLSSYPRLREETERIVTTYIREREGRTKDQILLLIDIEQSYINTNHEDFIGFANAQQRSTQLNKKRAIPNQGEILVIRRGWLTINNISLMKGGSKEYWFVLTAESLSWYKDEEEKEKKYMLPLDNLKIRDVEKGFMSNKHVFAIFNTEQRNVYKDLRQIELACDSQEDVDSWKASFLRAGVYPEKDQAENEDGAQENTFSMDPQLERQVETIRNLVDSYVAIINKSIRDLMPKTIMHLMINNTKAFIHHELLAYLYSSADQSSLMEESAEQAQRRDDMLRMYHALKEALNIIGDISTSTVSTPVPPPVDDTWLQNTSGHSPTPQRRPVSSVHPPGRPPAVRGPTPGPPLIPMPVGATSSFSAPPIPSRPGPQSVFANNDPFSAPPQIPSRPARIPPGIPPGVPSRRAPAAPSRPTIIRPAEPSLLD

[2] = molecular target: T1, dynamin 2 (mouse (endogenous in testis)); test: co-IP; 10 ug primary antibody cross-linked (DTSSP) to Dynabeads Protein G, incubated with whole testis lysate (CHAPS lysis buffer, 137 mM NaCl, pH 7.0) at 4 °C overnight; denaturing elution, immunoblot; rabbit IgG IP as control
[3] = molecular target: Calcineurin (PPP3CA) (mouse (endogenous in testis)) (UniProt P63328); test: as above
[4] = molecular target: CDK1 (mouse (endogenous in testis)) (UniProt P11440); test: as above
[5] = molecular target: Calcineurin (PPP3CA) (mouse (endogenous in testis)) (UniProt P63328); test: proximity ligation; Duolink in situ PLA on fixed isolated mouse germ cells (SPG, PS, RS, elongating spermatids); signal means <40 nm

- binding [1]: binds
- binding [2]: binds
Molecule: CDK1 (from UniProt P11440 1-297) (enzyme)

- binding [3]: binds
- binding [4]: binds
- binding [5]: binds
B1: dynamin 2 (protein, UniProt P39054 1-870)
chain: T1 sequence
